Experimental data from patent publication WO2019173771A1.
No constants are given. Whether binding was seen depends on the method and setting. Some binding calls cover weakened binding; strength is not graded here.

Sequences of proteins named here, by UniProt entry; tags and fusion partners are left off. Residues count along the entry.
UniProt P35613, residues 138-325: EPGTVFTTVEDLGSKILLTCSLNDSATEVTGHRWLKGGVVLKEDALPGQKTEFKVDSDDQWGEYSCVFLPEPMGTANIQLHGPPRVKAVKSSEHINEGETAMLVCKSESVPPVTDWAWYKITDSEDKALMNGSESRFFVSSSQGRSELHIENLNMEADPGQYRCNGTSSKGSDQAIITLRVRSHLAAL

Biological target: human CD147 extracellular domain (ECD) (human) (UniProt P35613)
Experiment: ELISA screen of hybridomas

B1: mouse anti-human CD147 3A11 monoclonal antibody (antibody, V domains shown)
VH: EVKLEESGGGLVQPGGSMKLSCVASGFTFSNYWMNWVRQSPEKGLEWVGEIRLKSYNYATHYVESVEGRFTISRDDSKSSVYLQMNNLRAEDTGIYYCTAAGTDYWGQGTTLTVSS
VL: SIVMTQIPKILLVSAGDRVTITCKASQSVRTDVAWYQQKPGQSPKLLIYYSSNRYTGVPDRFTGSGYGTDFTFTISTVQAEDLAVYFCQQDYSSPFTFGSGTKLEIK
binding: binds
